Here are results for three molecules from publication PMC10869804 (Scientific Reports, 2024).

Assay [1] deals with 6xHis-Flag affinity tagged Orf63 from lambda bacteriophage (phage λ). Nature of the assay: NMR titration; 15N-HSQC of 0.48 mM 15N-Orf63 (monomeric concentration) with 0.12, 0.24, 0.36, 0.48 and 0.60 mM peptide in PBS pH 7.4; chemical shift perturbation mapping; both purified.
The target is the same in assay [2]. Nature of the assay: NMR titration; single 2:1 mixture of ubiquitin fusion protein and 15N-labelled Orf63 dimer; chemical shift and line broadening changes read; both purified.

These are yes or no findings as the source states them, for the method shown. Binding calls can cover weak binding; strength is not graded here. For part of these data: Sequences can lack the tags named with a protein.

B1: designed Orf63 binding peptide … (unlabelled synthetic peptide) (designed binder)
peptide: DTKELILAIARKVKEMIKNS
B1: the binding entry in assay [1] is recorded as “binds”.

B2: 6xHis-tagged ubiquitin fusion protein with the designed Orf63 binding peptide (designed binder)
chain: GGLVPRGSGDTKELILAIARKVKEMIKNS
In the case of B2, the binding result in assay [2] is reported as “binds”.

B3: 6xHis-tagged ubiquitin fusion protein with an unrelated peptide (peptide)
chain: GGLVPRGSGMAIAHAATEYVFADFVLK
For B3, the binding entry in assay [2] is recorded as “no binding (tested: 2:1 mixture)”.
